Results: the supplement of paper PMC12823440, “Inhibitors supercharge kinase turnover through native proteolytic circuits” (Nature, 2025)
Structures can show the parent of a compound that is named as a salt. The list shows a part of the results. Hit calls seldom repeat between salt and free forms of one compound.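 Kinases were expressed as nanoluciferase fusions in K562 cells and luminescence was read every 4 h between 2 and 18 h as percent of control, DMSO set to 100% and a positive control to 0%. A time point counts as decreased when the signal drops significantly (2 sigma). The hit call is the authors' own, does not follow from the count of time points alone, and its rule is not shown.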

Sequences of proteins named here, by UniProt entry; tags and fusion partners are left off. A change or cut given only in a name is not applied to a line headed by its entry.
UniProt Q12851: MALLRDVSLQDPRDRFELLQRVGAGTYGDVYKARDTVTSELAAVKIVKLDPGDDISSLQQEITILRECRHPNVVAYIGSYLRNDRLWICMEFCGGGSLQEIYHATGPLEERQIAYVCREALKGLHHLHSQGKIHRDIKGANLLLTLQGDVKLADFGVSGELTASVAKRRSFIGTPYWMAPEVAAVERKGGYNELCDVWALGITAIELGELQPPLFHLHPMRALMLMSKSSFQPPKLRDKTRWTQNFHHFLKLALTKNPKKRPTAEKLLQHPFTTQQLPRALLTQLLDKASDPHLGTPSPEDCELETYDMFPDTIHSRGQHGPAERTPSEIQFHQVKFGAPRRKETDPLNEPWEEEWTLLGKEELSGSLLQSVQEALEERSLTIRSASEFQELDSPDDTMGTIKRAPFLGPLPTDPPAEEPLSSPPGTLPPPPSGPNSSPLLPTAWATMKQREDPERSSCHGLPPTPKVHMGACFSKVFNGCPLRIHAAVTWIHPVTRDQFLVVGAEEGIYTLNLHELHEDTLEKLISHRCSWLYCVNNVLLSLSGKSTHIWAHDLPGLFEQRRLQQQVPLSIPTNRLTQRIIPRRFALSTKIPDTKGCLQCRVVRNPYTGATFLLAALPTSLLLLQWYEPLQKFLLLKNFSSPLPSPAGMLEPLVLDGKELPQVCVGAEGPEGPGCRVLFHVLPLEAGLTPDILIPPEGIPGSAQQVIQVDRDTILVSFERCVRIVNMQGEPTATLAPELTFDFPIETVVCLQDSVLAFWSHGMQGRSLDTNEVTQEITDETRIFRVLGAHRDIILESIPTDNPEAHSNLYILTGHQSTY

Target: MAP2K2 (UniProt P36507)
Test: number of time points (of 5) at which kinase-Nluc abundance scored as decreased, DMSO-normalised (count); higher = more persistent destabilization
Conditions: K562; 2-18 h

SMILES | number of time points
Cc1ccc(NC(=O)c2ccnc(C(F)(F)F)c2)cc1-c1cc(OCCO)nc(N2CCOCC2)c1 (10 µM) | 0
C=CC(=O)Nc1cccc(-c2cccc3cnc(Nc4ccc(N5CCN(CCO)CC5)c(F)c4F)nc23)c1 [Olafertinib] (2.5 µM) | 0
CC(C)(C[C@H](N)C(=O)O)C(F)F [NV-5138 (hydrochloride)] (10 µM) | 0
Cc1cc(C)nc(NS(=O)(=O)c2ccc(NC(=S)NC(=O)COc3ccc(Br)cc3Cl)cc2)n1 (2.5 µM) | 0
CC[C@@](C)(Nc1ccnc(-c2c[nH]c3ncccc23)n1)C(=O)NCC(F)(F)F [Decernotinib] (10 µM) | 0
COc1cc2ncnc(-n3nc(-c4ccccn4)nc3N)c2cc1OC (10 µM) | 0
O=C1/C(=C\c2ccc(Cl)cc2)C=C(c2ccccc2)N1c1ccc(O)cc1 (2.5 µM) | 0
Oc1ccc(/C=C/c2cc(O)cc(O)c2)cc1 [Resveratrol] (10 µM) | 0

Target: MAP4K2 (UniProt Q12851)
Test: as above
Conditions: K562; 2-18 h

SMILES | number of time points
CN1C(=O)[C@@H](NC(=O)c2n[nH]c(Cc3ccccc3)n2)COc2ccccc21 (10 µM) | 0
O=C1NC(=Nc2c(Cl)cccc2Cl)S/C1=C\c1ccc2nccnc2c1 (2.5 µM) | 0
Cc1cccc(-c2[nH]c(C(C)(C)C)nc2-c2ccc3nccnc3c2)n1 (10 µM) | 0
O=C(Nc1cccc(C(F)(F)F)c1)c1cccc2cc(Oc3cc(CO)ncn3)ccc12 (10 µM) | 0
CNc1cc(Nc2cccn(-c3ccccn3)c2=O)nn2c(C(=O)N[C@@H]3C[C@@H]3F)cnc12 (2.5 µM) | 0
Cc1ccn2c(C(=O)C(=O)c3ccccc3)c(-c3ccccc3)nc2c1 (10 µM) | 0
COc1cc(N2CCOCC2)ccc1Nc1ncc(Cl)c(Nc2ccccc2NS(C)(=O)=O)n1 (2.5 µM) | 0
O=C(NC1CCOCC1)c1ccc(-c2cc(-c3c[nH]nc3-c3ccccn3)ccn2)cc1 (10 µM) | 0
O=C1NC(=O)/C(=C/c2ccc3nccc(-c4ccncc4)c3c2)S1 (10 µM) | 0
Cc1ncc(NC(=O)NC2c3ccccc3-c3ccccc32)c(-c2ccccc2)n1 (10 µM) | 0
CC(C)C[C@@H](C(=O)Nc1ccn(C[C@@H](O)CO)n1)N1CC(Oc2ccccc2Cl)=CC1=O [Dorzagliatin] (10 µM) | 0
O=C1O[C@H]([C@@H](O)CO)C(O)=C1OP(=O)(O)O [2-Phospho-L-ascorbic acid (trisodium)] (10 µM) | 0
C[C@@H]1CC(=O)c2c(ccc3c2C(=O)c2cccc(O)c2C3=O)C1 [Ochromycinone] (10 µM) | 0
Cc1c(-c2ccc(C(N)=O)c3[nH]c4cc(C(C)(C)O)ccc4c23)cccc1-n1cnc2ccccc2c1=O (2.5 µM) | 0
CC(C)(C)n1nc(Cc2ccccc2O)c2c(N)ncnc21 (10 µM) | 0
C=CC(=O)N1C(=O)CC(c2ccc(F)cc2)Sc2ccccc21 (stereo not drawn) [GSK-3β inhibitor 3] (10 µM) | 0
CCc1ccc(OCC(=O)Nc2ccc(F)c([N+](=O)[O-])c2)cc1 (10 µM) | 0
CN(C)c1nc2c(Br)c(Br)c(Br)c(Br)c2[nH]1 (10 µM) | 0
Nc1ncnc2c1c(-c1ccc(Oc3ccccc3)cc1)nn2C1CCN(CCOCCOCCOc2ccc3c(c2)CN(C2CCC(=O)NC2=O)C3=O)CC1 (configuration not stated) (2.5 µM) | 0
Cc1cnc(NC2CCOCC2)nc1-n1cnc(C(=O)N[C@H](CN)c2cc(F)cc(Cl)c2)c1 (10 µM) | 0

SMILES | number of time points
FC(F)(F)c1ccc(/C=C/c2nc(COc3ccc(CCCCn4ccnn4)cc3)co2)cc1 [Mubritinib] (10 µM) | 0
Cc1cc2sc(NC(=O)Cc3ccccc3)nc2cc1Cl (10 µM) | 0
O=C(CNc1cccc(Cl)c1)NC1CCCN(c2ncnc3[nH]ccc23)C1 (configuration not stated) (10 µM) | 0
Oc1ccc(/C=C/c2cc(O)cc(F)c2)cc1 [Resveratrol analog 1] (10 µM) | 0
CC/C(=N\NC(=O)c1ccnc(NCCCN2CCOCC2)c1)c1ccc(Cl)cc1O (2.5 µM) | 0
O[C@@H]1CO[C@H]2[C@@H]1OC[C@H]2Oc1nc2nc(-c3ccc(-c4ccccc4)cc3)c(Cl)cc2[nH]1 (10 µM) | 0
Nc1c(C(=O)NCc2ccc(C(=O)NCCCC3CCCCC3)cc2)cnn1-c1ccccc1 (2.5 µM) | 0
Cc1ccc(C(=O)Nc2sc(Nc3ccccc3)nc2C(N)=O)cc1 (10 µM) | 0
COc1cc(N(C)CCN(C)C)c(N)cc1Nc1nccc(-c2cn(C)c3ccccc23)n1 [Mutated EGFR-IN-1] (10 µM) | 0
CCN(CC)c1cc2oc(=O)c(-c3nc4ccccc4o3)cc2cc1C (2.5 µM) | 0
Cn1cc(-c2cnc3cnn(S(=O)(=O)c4cnc5ccc(-c6cnn(C)c6)cn45)c3c2)cn1 [Glumetinib] (10 µM) | 0
Cc1ccc(NC(=O)c2ccnc(C(F)(F)F)c2)cc1-c1cc(OCCO)nc(N2CCOCC2)c1 (10 µM) | 0
C=CC(=O)Nc1cccc(-c2cccc3cnc(Nc4ccc(N5CCN(CCO)CC5)c(F)c4F)nc23)c1 [Olafertinib] (2.5 µM) | 0
CC(C)(C[C@H](N)C(=O)O)C(F)F [NV-5138 (hydrochloride)] (10 µM) | 0
Cc1cc(C)nc(NS(=O)(=O)c2ccc(NC(=S)NC(=O)COc3ccc(Br)cc3Cl)cc2)n1 (2.5 µM) | 0
CC[C@@](C)(Nc1ccnc(-c2c[nH]c3ncccc23)n1)C(=O)NCC(F)(F)F [Decernotinib] (10 µM) | 0
COc1cc2ncnc(-n3nc(-c4ccccn4)nc3N)c2cc1OC (10 µM) | 0
O=C1/C(=C\c2ccc(Cl)cc2)C=C(c2ccccc2)N1c1ccc(O)cc1 (2.5 µM) | 0
Oc1ccc(/C=C/c2cc(O)cc(O)c2)cc1 [Resveratrol] (10 µM) | 0
